{"source": "PubChem BioAssay AID504834", "about": "(National Center for Advancing Translational Sciences (NCATS), 2011)", "note": "Screen size: about 320,000 compounds; about 22,000 (6.9%) were called active. The shares of active, inactive and inconclusive entries below differ from those in the screen. Calls follow the shape of the dose curve; as a rule, active = well fitted inhibition curve with a large enough effect; inconclusive = small, poorly fitted or top-dose-only effect, or another doubt; inactive = no such curve, though single readings can be large or run the other way. A potency beside an inconclusive call is a rough fit, not a confirmed value. Potency is read from the fitted curve at half-maximal effect.", "data": [{"assay": "Primary qHTS for delayed death inhibitors of the malarial parasite plastid, 96 hour incubation", "details": "P. falciparum luciferase reporter growth; series mostly up to 28.7 µM", "excerpt": "The goal of this screen is to discover new antimalarial compounds that act by inhibiting the development of the apicoplast in the malarial parasite Plasmodium falciparum. The biochemical processes that make this organelle essential for erythrocytic stage parasites are not well understood. However, antibiotics such as azithromycin and tetracycline, which target the apicoplast translational machinery, have a potent antimalarial effect.\nWe have developed a cell-based assay that measures parasite growth based on the expression of an integrated copy of a firefly luciferase reporter. To detect small molecules that cause this \"delayed death\" phenotype, erythrocytes infected with the luciferase-expressing parasites were incubated with compounds for either one or two generations, corresponding to 48 and 96 hours, respectively. Compounds that inhibit parasite growth in the second generation, but not the first, should be enriched in antimalarials that target the apicoplast. Growth inhibition is detected by a decrease in luciferase activity. […]\nFour microliters of infected erythrocytes (2% hematocrit, 0.05% parasitemia final concentration) in culture medium were dispensed and the plates incubated for 96 hours at 37 C in 5% CO2. Two microliters of luciferase detection reagent was added and luminescence was detected by a ViewLux (PerkinElmer) reader.", "values": [{"smiles": "CCOc1cc(NS(=O)(=O)c2ccc(OC)cc2)c(OCC)cc1NC(C)=O", "Potency": "inconclusive: 9.28 µM [inhibitor, partial curve]"}]}]}
